Source: PubChem BioAssay AID248 (DTP/NCI, 2004)
The list shows only some results of the screen, not a fair sample: it gathers some chemical classes. Other doses and runs of a compound may be missing. T/C is the treated group as % of the vehicle group. Some doses have a count of surviving animals in place of a T/C: the source files T/C as zero there, which appears to mark a toxic dose or a test without result, not a measured value. Some survivor counts are full or nearly so, which does not show that the dose was tolerated: the source hardly ever lists a survival T/C far under the control, and the zero likely stands for such cases as well. Survivors were counted at the toxicity check, usually on the fifth day, unless a day is given; later deaths do not show. Schedules are NCI's codes, read here as Q, the interval in days (D) or hours (H), X, the number of doses. Some doses were run more than once; the values are given in rising order. Some schedule codes hold Z or #, which are not explained here. For survival time, the PubChem record calls one and a half times the control and up active, and a quarter to a half above the control has no call in these data; cut-offs in other NCI protocols can differ. Additions like (4×) say how often a value occurs here. Some T/C values carry the count of animals alive at the toxicity check (mostly the fifth day); without a count or a note in brackets, all were alive then.

System: L1210 leukemia ip in BDF1 mice, survival T/C
Test: NCI In Vivo Anticancer Drug Screen. Data for tumor model L1210 Leukemia (intraperitoneal) in B6D2F1 (BDF1) mice
Settings: T/C endpoint: mean survival time, higher T/C = longer survival
[1] = dose: 2.0 mg/kg/injection, schedule: Q01DX Z (ip), vehicle: carboxymethylcellulose (CMC)
[2] = dose: 4.0 mg/kg/injection, schedule: Q01DX009 (ip), vehicle: saline
[3] = dose: 4.0 mg/kg/injection, schedule: Q01DX Z (ip), vehicle: carboxymethylcellulose (CMC)
[4] = dose: 8.0 mg/kg/injection, schedule: Q01DX009 (ip), vehicle: saline

Compound: Cc1[nH]c(=O)[nH]c(=O)c1N(CCCl)CCCl
- T/C (dose: 0.1 mg/kg/injection, schedule: Q01DX Z (ip), vehicle: carboxymethylcellulose (CMC)): 110 % of control
- T/C (dose: 0.2 mg/kg/injection, schedule: Q01DX Z (ip), vehicle: carboxymethylcellulose (CMC)): 115 % of control
- T/C (dose: 0.25 mg/kg/injection, schedule: Q01DX010 (ip), vehicle: saline): 103 % of control (2×)
- T/C (dose: 0.25 mg/kg/injection, schedule: Q#A X Z (ip), vehicle: saline): 102 % of control
- T/C (dose: 0.44 mg/kg/injection, schedule: Q01DX Z (ip), vehicle: carboxymethylcellulose (CMC)): 118 % of control
- T/C (dose: 0.5 mg/kg/injection, schedule: Q01DX001 (ip), vehicle: saline): 106 % of control
- T/C (dose: 0.5 mg/kg/injection, schedule: Q01DX006 (iv), vehicle: saline): 110 % of control
- T/C (dose: 0.5 mg/kg/injection, schedule: Q01DX010 (ip), vehicle: saline): 106 and 114 % of control [5 of 6 alive]
- T/C (dose: 0.5 mg/kg/injection, schedule: Q01DX Z (im), vehicle: saline): 112 % of control
- T/C (dose: 0.5 mg/kg/injection, schedule: Q01DX Z (ip), vehicle: carboxymethylcellulose (CMC)): 113 and 127 % of control
- T/C (dose: 0.5 mg/kg/injection, schedule: Q01DX Z (ip), vehicle: saline): 122 % of control
- T/C (dose: 0.5 mg/kg/injection, schedule: Q01DX Z (sc), vehicle: saline): 108 % of control
- T/C (dose: 0.5 mg/kg/injection, schedule: Q#A X Z (ip), vehicle: saline): 96 % of control
- T/C (dose: 0.6 mg/kg/injection, schedule: Q01DX Z (ip), vehicle: carboxymethylcellulose (CMC)): 116 % of control
- T/C (dose: 0.66 mg/kg/injection, schedule: Q01DX Z (ip), vehicle: carboxymethylcellulose (CMC)): 111 % of control
- T/C (dose: 0.9 mg/kg/injection, schedule: Q01DX Z (ip), vehicle: carboxymethylcellulose (CMC)): 107 % of control
- T/C (dose: 1.0 mg/kg/injection, schedule: Q01DX001 (ip), vehicle: saline): 107 % of control
- survivor count (dose: 1.0 mg/kg/injection, schedule: Q01DX006 (iv), vehicle: saline): 1 of 6
- T/C (dose: 1.0 mg/kg/injection, schedule: Q01DX009 (ip), vehicle: saline): 133, 140, 164 [5 of 6 alive], 167 % of control
- T/C (dose: 1.0 mg/kg/injection, schedule: Q01DX010 (ip), vehicle: saline): 126 and 129 % of control
- T/C (dose: 1.0 mg/kg/injection, schedule: Q01DX Z (im), vehicle: saline): 122 % of control
- T/C (dose: 1.0 mg/kg/injection, schedule: Q01DX Z (ip), vehicle: carboxymethylcellulose (CMC)): 120, 125, 142 % of control
- T/C (dose: 1.0 mg/kg/injection, schedule: Q01DX Z (ip), vehicle: saline): 130 % of control
- T/C (dose: 1.0 mg/kg/injection, schedule: Q01DX Z (sc), vehicle: saline): 122 % of control
- T/C (dose: 1.0 mg/kg/injection, schedule: Q#A X Z (ip), vehicle: saline): 94 % of control
- T/C (dose: 1.3 mg/kg/injection, schedule: Q01DX Z (ip), vehicle: carboxymethylcellulose (CMC)): 130 % of control
- T/C (dose: 1.5 mg/kg/injection, schedule: Q03DX006 (ip), vehicle: saline): 102 % of control
- T/C (dose: 1.6 mg/kg/injection, schedule: Q01DX Z (ip), vehicle: carboxymethylcellulose (CMC)): 128 % of control
- T/C (dose: 2.0 mg/kg/injection, schedule: Q01DX001 (ip), vehicle: saline): 104 % of control
- T/C (dose: 2.0 mg/kg/injection, schedule: Q01DX006 (iv), vehicle: saline): 116 % of control
- T/C (dose: 2.0 mg/kg/injection, schedule: Q01DX009 (ip), vehicle: saline): 112, 114, 137 [5 of 6 alive], 151 % of control [5 of 6 alive]
- T/C (dose: 2.0 mg/kg/injection, schedule: Q01DX010 (ip), vehicle: saline): 122, 141, 163 % of control
- T/C (dose: 2.0 mg/kg/injection, schedule: Q01DX Z (im), vehicle: saline): 154 % of control
- T/C [1]: 103 [6 of 7 alive], 119, 140 % of control
- survivor count [1]: 3 of 6
- T/C (dose: 2.0 mg/kg/injection, schedule: Q01DX Z (ip), vehicle: saline): 170 % of control
- T/C (dose: 2.0 mg/kg/injection, schedule: Q01DX Z (oral), vehicle: saline): 107 % of control
- T/C (dose: 2.0 mg/kg/injection, schedule: Q01DX Z (sc), vehicle: saline): 145 % of control
- T/C (dose: 2.0 mg/kg/injection, schedule: Q#A X Z (ip), vehicle: saline): 94 % of control
- survivor count (dose: 3.0 mg/kg/injection, schedule: Q01DX Z (ip), vehicle: carboxymethylcellulose (CMC)): 4 of 6
- T/C (dose: 3.0 mg/kg/injection, schedule: Q03DX006 (ip), vehicle: saline): 113 % of control
- T/C (dose: 4.0 mg/kg/injection, schedule: Q01DX001 (ip), vehicle: saline): 119 and 135 % of control
- T/C (dose: 4.0 mg/kg/injection, schedule: Q01DX006 (iv), vehicle: saline): 107 and 116 % of control [5 of 6 alive]
- T/C [2]: 90 (2×) and 100 % of control [4 of 6 alive]
- survivor count [2]: 4 of 6
- T/C (dose: 4.0 mg/kg/injection, schedule: Q01DX010 (ip), vehicle: saline): 139 % of control
- survivor count (dose: 4.0 mg/kg/injection, schedule: Q01DX Z (im), vehicle: saline): 1 of 6
- T/C [3]: 100 % of control [5 of 6 alive]
- survivor count [3]: 6 of 6
- T/C (dose: 4.0 mg/kg/injection, schedule: Q01DX Z (ip), vehicle: saline): 116 % of control
- T/C (dose: 4.0 mg/kg/injection, schedule: Q01DX Z (oral), vehicle: saline): 107 % of control
- T/C (dose: 4.0 mg/kg/injection, schedule: Q01DX Z (sc), vehicle: saline): 120 % of control [5 of 6 alive]
- T/C (dose: 4.0 mg/kg/injection, schedule: Q07DX003 (ip), vehicle: saline): 105 % of control
- T/C (dose: 4.0 mg/kg/injection, schedule: Q#A X Z (ip), vehicle: saline): 112 % of control
- survivor count (dose: 4.5 mg/kg/injection, schedule: Q01DX Z (ip), vehicle: carboxymethylcellulose (CMC)): 2 of 6
- survivor count (dose: 6.0 mg/kg/injection, schedule: Q01DX Z (ip), vehicle: carboxymethylcellulose (CMC)): 3 of 6 and 6 of 6
- T/C (dose: 6.0 mg/kg/injection, schedule: Q03DX006 (ip), vehicle: saline): 122 % of control [5 of 6 alive]
- survivor count (dose: 6.75 mg/kg/injection, schedule: Q01DX Z (ip), vehicle: carboxymethylcellulose (CMC)): 5 of 6
- T/C (dose: 8.0 mg/kg/injection, schedule: Q01DX001 (ip), vehicle: saline): 111 and 143 % of control
- T/C (dose: 8.0 mg/kg/injection, schedule: Q01DX006 (iv), vehicle: saline): 131 % of control [5 of 6 alive]
- T/C [4]: 97 % of control [4 of 6 alive]
- survivor count [4]: 1 of 6, 4 of 6, 5 of 6
- T/C (dose: 8.0 mg/kg/injection, schedule: Q01DX010 (ip), vehicle: saline): 94 % of control
- T/C (dose: 8.0 mg/kg/injection, schedule: Q01DX Z (oral), vehicle: saline): 110 % of control
- T/C (dose: 8.0 mg/kg/injection, schedule: Q07DX003 (ip), vehicle: saline): 113 % of control
- T/C (dose: 8.0 mg/kg/injection, schedule: Q#A X Z (ip), vehicle: saline): 134 % of control
- T/C (dose: 12.0 mg/kg/injection, schedule: Q03DX006 (ip), vehicle: saline): 145 % of control
- T/C (dose: 16.0 mg/kg/injection, schedule: Q01DX001 (ip), vehicle: saline): 108 and 122 % of control
- T/C (dose: 16.0 mg/kg/injection, schedule: Q01DX006 (iv), vehicle: saline): 145 % of control
- T/C (dose: 16.0 mg/kg/injection, schedule: Q01DX Z (oral), vehicle: saline): 117 % of control
- T/C (dose: 16.0 mg/kg/injection, schedule: Q07DX003 (ip), vehicle: saline): 134 % of control
- T/C (dose: 16.0 mg/kg/injection, schedule: Q#A X Z (ip), vehicle: saline): 150 % of control
- T/C (dose: 24.0 mg/kg/injection, schedule: Q03DX006 (ip), vehicle: saline): 142 % of control
- T/C (dose: 32.0 mg/kg/injection, schedule: Q01DX001 (ip), vehicle: saline): 115 and 145 % of control
- T/C (dose: 32.0 mg/kg/injection, schedule: Q01DX006 (iv), vehicle: saline): 139 % of control
- T/C (dose: 32.0 mg/kg/injection, schedule: Q01DX Z (oral), vehicle: saline): 129 % of control
- T/C (dose: 32.0 mg/kg/injection, schedule: Q07DX003 (ip), vehicle: saline): 187 % of control
- survivor count (dose: 32.0 mg/kg/injection, schedule: Q#A X Z (ip), vehicle: saline): 4 of 6
- T/C (dose: 48.0 mg/kg/injection, schedule: Q03DX006 (ip), vehicle: saline): 142 % of control
- T/C (dose: 64.0 mg/kg/injection, schedule: Q01DX001 (ip), vehicle: saline): 98 % of control [4 of 6 alive]
- T/C (dose: 64.0 mg/kg/injection, schedule: Q01DX006 (iv), vehicle: saline): 98 % of control [5 of 6 alive]
- survivor count (dose: 64.0 mg/kg/injection, schedule: Q01DX Z (oral), vehicle: saline): 6 of 6
- T/C (dose: 64.0 mg/kg/injection, schedule: Q07DX003 (ip), vehicle: saline): 146 % of control [5 of 6 alive]
- survivor count (dose: 96.0 mg/kg/injection, schedule: Q03DX006 (ip), vehicle: saline): 6 of 6
- T/C (dose: 128.0 mg/kg/injection, schedule: Q01DX001 (ip), vehicle: saline): 91 % of control [4 of 6 alive]
- survivor count (dose: 128.0 mg/kg/injection, schedule: Q01DX006 (iv), vehicle: saline): 6 of 6
- survivor count (dose: 128.0 mg/kg/injection, schedule: Q01DX Z (oral), vehicle: saline): 5 of 6
- survivor count (dose: 128.0 mg/kg/injection, schedule: Q07DX003 (ip), vehicle: saline): 4 of 6
